In test [1] the target is mDll-4 expressed on B16F10 cells (mouse (mDll-4 in legend and methods; the results text says human)) (UniProt Q9JI71). Put plainly: flow cytometry on cells; biotinylated hNotch1 fragments coupled to avidin-coated purple fluorescent beads (Spherotech), added to B16F10 cells expressing mDll-4 or mJagged1; analysed directly without removal of unbound beads; compared with a control protein; only the binder purified.

Chains of the proteins cited; added tags and fusions are not shown. Residues count along the entry.
UniProt Q9JI71, residues 27-686: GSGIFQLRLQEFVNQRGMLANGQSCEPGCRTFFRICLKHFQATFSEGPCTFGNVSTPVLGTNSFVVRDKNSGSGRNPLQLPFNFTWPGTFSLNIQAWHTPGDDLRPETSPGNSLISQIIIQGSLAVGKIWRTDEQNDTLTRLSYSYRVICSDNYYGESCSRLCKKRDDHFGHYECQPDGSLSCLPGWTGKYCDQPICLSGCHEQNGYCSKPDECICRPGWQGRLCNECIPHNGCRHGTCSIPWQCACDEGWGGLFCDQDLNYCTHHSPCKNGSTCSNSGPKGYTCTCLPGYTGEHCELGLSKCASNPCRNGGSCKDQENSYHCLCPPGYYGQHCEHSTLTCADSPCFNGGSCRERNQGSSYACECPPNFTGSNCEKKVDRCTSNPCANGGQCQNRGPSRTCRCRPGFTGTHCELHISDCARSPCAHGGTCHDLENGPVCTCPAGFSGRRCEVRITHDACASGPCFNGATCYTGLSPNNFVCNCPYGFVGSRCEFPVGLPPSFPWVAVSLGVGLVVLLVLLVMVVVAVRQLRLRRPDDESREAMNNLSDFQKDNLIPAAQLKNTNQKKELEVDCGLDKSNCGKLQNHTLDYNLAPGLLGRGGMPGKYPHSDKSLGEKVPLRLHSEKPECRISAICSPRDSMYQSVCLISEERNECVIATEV
UniProt Q9QXX0, residues 34-1218: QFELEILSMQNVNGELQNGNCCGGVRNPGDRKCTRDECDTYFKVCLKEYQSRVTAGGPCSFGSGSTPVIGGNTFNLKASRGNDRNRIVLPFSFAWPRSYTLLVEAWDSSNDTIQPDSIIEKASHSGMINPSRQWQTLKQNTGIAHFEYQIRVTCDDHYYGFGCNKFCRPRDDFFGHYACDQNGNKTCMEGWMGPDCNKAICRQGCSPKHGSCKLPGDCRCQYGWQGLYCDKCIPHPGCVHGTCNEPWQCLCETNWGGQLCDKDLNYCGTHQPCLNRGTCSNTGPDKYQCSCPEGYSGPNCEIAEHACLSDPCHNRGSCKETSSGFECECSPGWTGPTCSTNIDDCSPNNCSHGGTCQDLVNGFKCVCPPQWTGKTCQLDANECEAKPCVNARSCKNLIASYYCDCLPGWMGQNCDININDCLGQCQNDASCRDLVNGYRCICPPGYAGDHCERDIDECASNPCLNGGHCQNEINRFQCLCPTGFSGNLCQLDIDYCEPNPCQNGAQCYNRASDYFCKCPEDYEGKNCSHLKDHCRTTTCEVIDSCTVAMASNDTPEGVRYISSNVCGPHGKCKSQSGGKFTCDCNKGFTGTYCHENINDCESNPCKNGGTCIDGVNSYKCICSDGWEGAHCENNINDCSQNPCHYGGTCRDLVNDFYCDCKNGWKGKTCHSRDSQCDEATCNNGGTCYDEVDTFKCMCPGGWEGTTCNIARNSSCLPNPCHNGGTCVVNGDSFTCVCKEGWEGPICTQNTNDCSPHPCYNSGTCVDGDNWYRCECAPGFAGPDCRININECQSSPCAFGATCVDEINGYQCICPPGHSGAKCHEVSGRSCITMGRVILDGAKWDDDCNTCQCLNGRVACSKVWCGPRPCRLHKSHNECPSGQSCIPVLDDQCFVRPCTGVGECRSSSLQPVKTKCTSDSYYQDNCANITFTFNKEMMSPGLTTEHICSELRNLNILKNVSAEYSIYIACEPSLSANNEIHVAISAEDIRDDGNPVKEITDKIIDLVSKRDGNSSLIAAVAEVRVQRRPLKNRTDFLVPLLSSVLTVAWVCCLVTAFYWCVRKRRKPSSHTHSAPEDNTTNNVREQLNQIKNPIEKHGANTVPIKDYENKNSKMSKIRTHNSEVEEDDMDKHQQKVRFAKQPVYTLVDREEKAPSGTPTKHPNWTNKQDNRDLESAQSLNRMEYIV
UniProt P46531, residues 411-526: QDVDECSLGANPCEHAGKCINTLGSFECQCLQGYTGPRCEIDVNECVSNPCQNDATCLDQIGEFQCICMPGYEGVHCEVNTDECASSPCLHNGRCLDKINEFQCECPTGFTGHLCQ

Test [2] deals with mJagged1 expressed on B16F10 cells (mouse) (UniProt Q9QXX0). The test is described as above.

Results are given in words; binding and its absence hold for the method and conditions named. Some results given as binding are weak or reduced against the parent protein; the word gives no strength.

Take “human Notch1 EGF11-13, biotinylated (from UniProt P46531 411-526) (domain or fragment)”: the binding entry in test [1] and in test [2] was “binds” each time.

(Values after PMC4826273.)
